# Measurements reported in the supplement of paper PMC4807443.
# Structures can show the parent of a compound that is named as a salt. This is one part of the list. The numbers are fractions of the control, whatever unit the source prints. Most values lie at the level of the controls, where differences are scatter.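 MIN6, a mouse insulinoma beta-cell line, stably carries a lentiviral reporter where Pdx1 and Ins1 promoters each drive a nuclear fluorescent protein; Hoechst staining and automated imaging counted cells. Drugs were candidate hits if Ins1 promoter readout exceeded two median absolute deviations from DMSO controls while Pdx1 activity stayed near normal.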
# System: MIN6
# Assay: % Pdx1+ Ins1-low (RFP-only, immature) cells relative to DMSO control (fold of DMSO control); higher = more immature Pdx1+/Ins1-low cells
# Settings: 8.5 µM; 48 h; glucose 5 mM
row,SMILES,% Pdx1+ Ins1-low
1,C[C@]12CC[C@H](O)C[C@@H]1CC[C@@H]1[C@@H]2CC[C@]2(C)C(=O)CC[C@@H]12 [Epiandrosterone],0.844
2,"NCC(O)c1ccc(O)cc1 (racemic) [(+,-)-Octopamine hydrochloride]",1.03
3,C[C@@H]1O[C@@H](O[C@H]2C[C@@H](O)[C@]3(CO)[C@H]4[C@H](O)C[C@]5(C)[C@@H](C6=CC(=O)OC6)CC[C@]5(O)[C@@H]4CC[C@]3(O)C2)[C@H](O)[C@H](O)[C@H]1O [Strophantine octahydrate],1.03
4,COc1ccc2c3c([nH]c2c1)C(C)=NCC3 [Harmaline hydrochloride dihydrate],1.25
5,CN1[C@@H]2CC[C@H]1C[C@@H](OC1c3ccccc3CCc3ccccc31)C2 [Deptropine citrate],1.17
6,O=C1C=C2C=C[C@@H]3C[C@@]2(O1)[C@H]1CCCCN31 [Securinine],0.577
7,COc1ccc2[nH]c3c(c2c1)CCN=C3C [Methoxy-6-harmalan],1.48
8,CC(C)[C@@]1(NC(=O)[C@@H]2C[C@@H]3c4cccc5[nH]cc(c45)C[C@H]3N(C)C2)O[C@@]2(O)[C@@H]3CCCN3C(=O)[C@H](Cc3ccccc3)N2C1=O [Dihydroergocristine mesylate],0.902
9,COc1ccn(C)c(=O)c1C#N [Ricinine],1.05
10,CC[C@H](C)[C@H]1O[C@]2(C=C[C@@H]1C)C[C@@H]1C[C@@H](C/C=C(\C)[C@@H](O[C@H]3C[C@H](OC)[C@@H](O[C@H]4C[C@H](OC)[C@@H](O)[C@H](C)O4)[C@H](C)O3)[C@@H](C)/C=C/C=C3\CO[C@@H]4[C@H](O)C(C)=C[C@@H](C(=O)O1)[C@]34O)O2.CO[C@H]1C[C@H](O[C@H]2[C@H](C)O[C@@H](O[C@@H]3/C(C)=C/C[C@@H]4C[C@@H](C[C@]5(C=C[C@H](C)[C@@H](C(C)C)O5)O4)OC(=O)[C@@H]4C=C(C)[C@@H](O)[C@H]5OC/C(=C\C=C\[C@@H]3C)[C@]54O)C[C@@H]2OC)O[C@@H](C)[C@@H]1O [Avermectin B1],0.893
11,C[C@]12CCC(=O)C=C1CC[C@@H]1[C@@H]2C(=O)C[C@]2(C)C(=O)CC[C@@H]12 [Adrenosterone],0.571
12,C[N+]1(C)CCOC(O)(c2ccc(-c3ccc(C4(O)C[N+](C)(C)CCO4)cc3)cc2)C1 (stereo unspecified) [Hemicholinium bromide],1.1
13,CN(C)Cc1c[nH]c2ccccc12 [Gramine],0.709
14,O=C(O)CCCc1ccc(N(CCCl)CCCl)cc1 [Chlorambucil],0.813
15,CCCN1C[C@H](CSC)C[C@@H]2c3cccc4[nH]cc(c34)C[C@H]21 [Pergolide mesylate],1.22
16,CCCCc1ccc(C(=O)O)nc1 [Fusaric acid],0.782
17,"CC[C@@]1(O)C(=O)OCc2c1cc1n(c2=O)Cc2cc3ccccc3nc2-1 [Camptothecine (S,+)]",0.942
18,CCC(=O)O[C@@](Cc1ccccc1)(c1ccccc1)[C@@H](C)CN(C)C [Levopropoxyphene napsylate],0.84
19,c1ccc2nc(N3CCNCC3)ccc2c1 [Quipazine dimaleate salt],1.34
20,C[N+](C)(C)CCCCCCCCCC[N+](C)(C)C [Decamethonium bromide],0.782
21,C[N+]1(C)[C@@H]2CC[C@H]1C[C@@H](OC(=O)C(CO)c1ccccc1)C2 (stereo partly specified) [Methylatropine nitrate],0.519
22,CN1C[C@H](C(=O)N[C@]2(C)O[C@@]3(O)[C@@H]4CCCN4C(=O)[C@H](Cc4ccccc4)N3C2=O)C[C@@H]2c3cccc4[nH]cc(c34)C[C@H]21 [Dihydroergotamine tartrate],0.822
23,CC(C)N(CCC(C(N)=O)(c1ccccc1)c1ccccn1)C(C)C (stereo unspecified) [Disopyramide],0.912
24,C[C@H](N)[C@H](O)c1ccc(O)c(O)c1 [Levonordefrin],0.69
25,CC[C@H]1CN2CCc3cc(OC)c(OC)cc3[C@@H]2C[C@@H]1C[C@H]1NCCc2cc(O)c(OC)cc21 [Cephaeline dihydrochloride heptahydrate],1.09
26,CCN1C[C@]2(C)CC[C@H](OC)[C@@]34C1[C@]1(OCO[C@@]15C[C@H](OC)[C@H]1C[C@]3(O)[C@@H]5[C@H]1OC)[C@@H](OC(C)=O)[C@H]24 [Deltaline],0.823

# Some of the entries above, set out differently.
row	SMILES	% Pdx1+ Ins1-low
5	CN1[C@@H]2CC[C@H]1C[C@@H](OC1c3ccccc3CCc3ccccc31)C2 [Deptropine citrate]	1.17
6	O=C1C=C2C=C[C@@H]3C[C@@]2(O1)[C@H]1CCCCN31 [Securinine]	0.577

# (list continues)

row,SMILES,% Pdx1+ Ins1-low
1,CN1[C@@H]2CC[C@H]1C[C@@H](OC(=O)[C@H](CO)c1ccccc1)C2 [Hyoscyamine (L)],1.17
2,COc1ccc(CN2CCNCC2)c(OC)c1OC [Trimetazidine dihydrochloride],1.21
3,O=c1[nH]c2ccccc2n1CCCN1CCC(n2c(=O)[nH]c3cc(Cl)ccc32)CC1 [Domperidone maleate],1.25
4,C#C[C@]1(O)CC[C@H]2[C@@H]3CCC4=CC(=O)CC[C@]4(C)[C@H]3CC[C@@]21C [Ethisterone],0.611
5,C=C1[C@H]2C[C@@]3([C@@H]1O)[C@@H](C[C@@H]2O)[C@]12[C@@H]4C[C@H]3[C@H]1N(CC)C[C@]4(C)CC[C@@H]2O [Napelline],1.14
6,CC(C)[N+](C)(CCC(C(N)=O)(c1ccccc1)c1ccccc1)C(C)C [Isopropamide iodide],0.726
7,C/C=C1/C[N+]2(C)CCC34C(=C(C=O)[C@H]1C[C@@H]32)Nc1ccccc14 (stereo partly specified) [Fluorocurarine chloride],0.327
8,S=C(NC1CCCCC1)N1CCC(c2cnc[nH]2)CC1 [Thioperamide maleate],0.627
9,C[C@]12CC[C@H]3[C@@H](CC[C@]4(O)C[C@@H](O)CC[C@]34C=O)[C@@]1(O)CC[C@@H]2C1=CC(=O)OC1 [Strophanthidin],0.734
10,CCN(CC)C(=O)N[C@H]1C=C2c3cccc4[nH]cc(c34)C[C@H]2N(C)C1 [Lisuride (S)(-)],0.696
11,CCN(CC)C(=O)N[C@@H]1CC2c3cccc4[nH]cc(c34)CC2N(C)C1 (stereo partly drawn) [S(-)-terguride hydrogen maleate],1.05
12,"NC(N)=NOCC[C@H](N)C(=O)O [Canavanine sulfate monohydrate (L,+)]",0.93
13,CN1[C@@H]2CCC[C@H]1CC(=O)C2 [Pseudopelletierine hydrochloride],1.23
14,COc1ccc2c(c1)[C@]13CCCC[C@@H]1[C@H](C2)N(C)CC3 [Dextromethorphan hydrobromide monohydrate],0.886
15,C=C[C@H]1CN2CC[C@H]1C[C@H]2[C@H](O)c1ccnc2ccccc12 [(-)-Cinchonidine],1.36
16,CC1=NCCc2c1[nH]c1cc(O)ccc21 [Harmalol hydrochloride dihydrate],0.801
17,"CNCC(O)c1ccc(O)cc1 (racemic) [(+,-)-Synephrine]",0.921
18,CC1=CC(=O)C2=C(C)C[C@H](O)[C@@H]3[C@H](OC(=O)[C@H]3C)[C@H]12 [Austricine],0.726
19,C[C@]12CC[C@@H](O)C[C@@H]1CC[C@@H]1[C@@H]2CC[C@]2(C)C(=O)CC[C@@H]12 [Androsterone],1.48
20,COc1cc2c3cc1Oc1cc(ccc1O)C[C@@H]1c4c(cc(OC)c(O)c4Oc4cccc(c4)C[C@@H]3N(C)CC2)CC[N+]1(C)C [Tubocurarine chloride pentahydrate (+)],1.04
21,C1CCc2nnnn2CC1 [Pentylenetetrazole],0.927
22,COc1cc2c(cc1O)[C@@H]1Cc3ccc(OC)c(O)c3CN1CC2 [Scoulerine],1.13
23,CC(Cc1ccc(O)cc1)NCC(O)c1cc(O)cc(O)c1 (stereo unspecified) [Fenoterol hydrobromide],0.619
24,C=C[C@H]1CN2CC[C@H]1C[C@@H]2[C@@H](O)c1ccnc2ccccc12 [Cinchonine],0.46
25,C=C1[C@@H]2CC[C@H]3[C@]4(C)C[C@H](O[C@@H]5O[C@H](CO)[C@@H](OS(=O)(=O)O)[C@H](OS(=O)(=O)O)[C@H]5OC(=O)CC(C)C)C[C@@H](C(=O)O)[C@H]4CC[C@]3(C2)[C@@H]1O [Atractyloside potassium salt],1.19

# A different layout for part of the listing above:
row	SMILES	% Pdx1+ Ins1-low
12	NC(N)=NOCC[C@H](N)C(=O)O [Canavanine sulfate monohydrate (L,+)]	0.93
13	CN1[C@@H]2CCC[C@H]1CC(=O)C2 [Pseudopelletierine hydrochloride]	1.23
14	COc1ccc2c(c1)[C@]13CCCC[C@@H]1[C@H](C2)N(C)CC3 [Dextromethorphan hydrobromide monohydrate]	0.886
15	C=C[C@H]1CN2CC[C@H]1C[C@H]2[C@H](O)c1ccnc2ccccc12 [(-)-Cinchonidine]	1.36
16	CC1=NCCc2c1[nH]c1cc(O)ccc21 [Harmalol hydrochloride dihydrate]	0.801
17	CNCC(O)c1ccc(O)cc1 (racemic) [(+,-)-Synephrine]	0.921
18	CC1=CC(=O)C2=C(C)C[C@H](O)[C@@H]3[C@H](OC(=O)[C@H]3C)[C@H]12 [Austricine]	0.726
19	C[C@]12CC[C@@H](O)C[C@@H]1CC[C@@H]1[C@@H]2CC[C@]2(C)C(=O)CC[C@@H]12 [Androsterone]	1.48
20	COc1cc2c3cc1Oc1cc(ccc1O)C[C@@H]1c4c(cc(OC)c(O)c4Oc4cccc(c4)C[C@@H]3N(C)CC2)CC[N+]1(C)C [Tubocurarine chloride pentahydrate (+)]	1.04
21	C1CCc2nnnn2CC1 [Pentylenetetrazole]	0.927
22	COc1cc2c(cc1O)[C@@H]1Cc3ccc(OC)c(O)c3CN1CC2 [Scoulerine]	1.13
23	CC(Cc1ccc(O)cc1)NCC(O)c1cc(O)cc(O)c1 (stereo unspecified) [Fenoterol hydrobromide]	0.619
